The source of these data is paper PMC10741561.

Amino acid sequences for entries named in this document (tags omitted). A change or cut given only in a name is not applied to a line headed by its entry.
UniProt P70452: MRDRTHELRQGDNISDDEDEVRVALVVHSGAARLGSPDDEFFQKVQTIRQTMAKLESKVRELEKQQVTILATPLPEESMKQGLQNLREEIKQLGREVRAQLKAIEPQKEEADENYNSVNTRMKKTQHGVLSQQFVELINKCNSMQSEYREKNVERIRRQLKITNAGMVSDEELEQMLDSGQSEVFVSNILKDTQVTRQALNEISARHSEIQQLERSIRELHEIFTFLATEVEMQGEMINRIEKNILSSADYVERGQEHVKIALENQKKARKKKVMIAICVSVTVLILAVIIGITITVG
UniProt P63044: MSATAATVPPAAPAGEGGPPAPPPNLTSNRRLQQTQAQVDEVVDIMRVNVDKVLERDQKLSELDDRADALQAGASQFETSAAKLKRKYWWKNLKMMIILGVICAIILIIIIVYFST

Results are given in words; binding and its absence hold for the method and conditions named. In cells and extracts the contact can be indirect. Some results given as binding are weak or reduced against the parent protein; the word gives no strength.

The target in the test is Phos-Sx4-Myc (full-length Sx4 with a double Myc-tag between residues 36 and 37 and with Y115 and Y251 both mutated to glutamic acid) (UniProt P70452). Kind of test: proximity ligation; fixed, permeabilised 3T3-L1 adipocytes stably expressing myc-tagged Sx4; anti-Myc with anti-SNAP23, anti-VAMP2 or anti-Munc18c; Duolink.

On to “VAMP2 (endogenous, 3T3-L1 adipocytes) (from UniProt P63044 1-116)”, for which the binding entry is listed as “binds”.

B1: SNAP23 (endogenous, 3T3-L1 adipocytes) (protein, UniProt O09044 1-210)
chain: MDNLSPEEVQLRAHQVTDESLESTRRILGLAIESQDAGIKTITMLDEQGEQLNRIEEGMDQINKDMREAEKTLTELNKCCGLCICPCNRTKNFESGKNYKATWGDGGDNSPSNVVSKQPSRITNGQPQQTTGAASGGYIKRITNDAREDEMEENLTQVGSILGNLKNMALDMGNEIDAQNQQIQKITEKADTNKNRIDIANTRAKKLIDS
Take B1: the binding entry was “binds”.
